Laboratory results from PMC11651612.

Assays:
[1] = target: T1, Cdc3-mCherry (C. neoformans) (UniProt J9VUF2); test: affinity purification with mass spectrometry; mCherry-tagged septin captured from C. neoformans lysate on RFP-Trap agarose, 4 h at 4°C, washed with TBS with 2 M urea pH 7.5; GeLC-MS/MS; untagged H99 as negative control; hits logFC >2 and adjusted p <0.001 (text-named hits <0.05); exponential cultures at ~25°C or shifted to 37°C for 2 h; N = 5
T1 sequence: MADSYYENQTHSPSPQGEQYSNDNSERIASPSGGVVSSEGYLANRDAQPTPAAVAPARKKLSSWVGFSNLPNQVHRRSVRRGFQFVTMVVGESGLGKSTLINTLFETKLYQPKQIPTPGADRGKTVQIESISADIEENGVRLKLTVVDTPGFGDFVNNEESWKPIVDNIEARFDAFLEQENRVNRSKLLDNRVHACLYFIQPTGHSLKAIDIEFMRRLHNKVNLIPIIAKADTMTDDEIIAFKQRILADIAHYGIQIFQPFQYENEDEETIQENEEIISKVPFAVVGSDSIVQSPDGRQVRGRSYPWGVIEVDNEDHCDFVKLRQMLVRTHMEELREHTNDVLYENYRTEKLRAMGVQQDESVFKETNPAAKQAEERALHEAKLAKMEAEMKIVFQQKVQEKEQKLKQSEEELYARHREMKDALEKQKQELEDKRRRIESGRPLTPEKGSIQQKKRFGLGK

[2] = target: T2, Cdc10-mCherry (C. neoformans) (UniProt J9VMT9); test: as above
T2 sequence: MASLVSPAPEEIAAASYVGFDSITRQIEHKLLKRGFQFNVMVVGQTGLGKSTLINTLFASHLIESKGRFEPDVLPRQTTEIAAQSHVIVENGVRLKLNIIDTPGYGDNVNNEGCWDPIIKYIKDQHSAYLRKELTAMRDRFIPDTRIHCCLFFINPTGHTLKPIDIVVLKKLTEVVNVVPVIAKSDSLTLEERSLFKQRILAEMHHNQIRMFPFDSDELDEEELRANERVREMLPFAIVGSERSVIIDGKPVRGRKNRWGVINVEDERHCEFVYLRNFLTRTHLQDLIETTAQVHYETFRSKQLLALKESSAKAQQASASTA

B1: V-type proton ATPase subunit F (protein, UniProt J9VRI8 1-121)
chain: MASNTPNPKDRNLIAVIGDEDSVTGLLLAGIGHINQHQKKNFLIVDGKTQTSVIESAFQDFTERKDVAILLINQHIAERIRPTVDRYQAAFPALLEIPSKEHPYDPAKDSVLKRVQKLRGD
[1]
  binding: binds
[2]
  binding: binds

B2: eIF-2B GDP-GTP exchange factor subunit alpha (protein, UniProt J9W1B2 1-388)
chain: MQSVASPQEYSDTPNQSSTSARTPSPRAFDVVTAYRRALEDDKVPHPIAAILALVELMEASTASTVTGLASELTVGRQVLINTQASLGVRAGCQLWERFFALFPGVGEDFPAYKRSLISQGRSFCAITAPQCREKIAELAVGFLRDDCVILTHSYSRTVIQTILRAHKQHKRIRVYVTEARPGCLGMKTHQFLTANGIPCTVVLDSAVAYVMERVDMVLVGSEAVVESGGLVSSVGTYQVALVAKVMQKPFYALAESYKFLRHYPLSQTDLPIPASSDRPSIPLEFPSTIPDTQSIPGFLSRGSSLTPQSRSPQAPATPPHAVIGGGGGGGADGGKRYERMEMTKEMEEINPMVDVTTPDLIDFIITDLGAPLSPTSVSQYLVAQFSS
[1]
  binding: binds
[2]
  binding: binds

B3: Septin ring protein CDC12 (protein, UniProt J9VU34 1-380)
chain: MSDGIGIANLPNQRHKITSQRGAHFTIMVVGQSGLGKTTLINTLFATEICSPRNYRQRFAKQLDKTTEVEILKADLEERGFNIKLTVIDTPGFGDYVNNRDSWGPIVDFIDDQHESYMRQEQQPFRKEKQDLRIHACLYFIKPTGTTLKPLDVEIMKKLGTRVNLIPVIAKADTMTPEDLHNFKTIVRETVIAQNIAVYTPPVDLDDEAAAEHARAMQAVMPFSIIGSTQDVTTPDGRVVKGREYLWGVAEVENEDHCDFKKLRSLLIRTYMLDLITSTEEKHYEAYRLAQMETRKFGEPKVKKLDNPKYREEEETLRKRFTEQVKLEEARFRQWEQHLIAERDRLNKDLEQAHSAIKALEAELDQVAAYHRQGGTVGRR
[1]
  binding: binds
[2]
  binding: binds

B4: RNA polymerase-associated protein LEO1 (protein, UniProt J9VTL1 1-468)
chain: MSDSESAADLFGDEEGSRRNSPAPQKSPSPQLSHKSDDEEQDVGDLFGDDAEEDEVQIGRRSTGTSASGSRSPHPLEYVEEDEAVPQRQNVVTLPIPQWPHMTATDGKVWQMKFPAYVNLDPKPFDPDLYRATQEEEPIDGATDPIAAKSMMIGVKNTIRWRWVTGPDGEPVRQSNARMLRWSDGSVTLQLGDDFYDVAPSQGATLARPSDPKPAPKRDDRPATNSSTTFLCVGAAAERVLVTERPIAGQLSLLPTSMTSKTYLELVKHVGQQHTKHSKMKMLEETQDEEALQALLLKSAPNREAIKGAKSTVRRTSSKTGLGKGKKTRKIGYSDSESDVGFSADERRPRRKPERESIEYDDDDGFIVSDSDEDDYPSKKKKGKGKNKKRKGFTDDEESLDEMEEAERRIEERERERKRARKDKGGPSKKSREYVDTEDEEDGKEAGDDDAEGEEEMDMDMDVESEED
[1]
  binding: binds
[2]
  binding: binds

B5: Splicing factor 3B subunit 2 (protein, UniProt J9VQG8 1-597)
chain: MPTPSTTTNGTGPHTTVTAPIKSSAAKSRGALKRLKAKARGGGGGGKGSSRMSETPTDTESEAESTTSTVDLSTLEIDPSDPRFTVFSNIFAHFQGGEGAEIPEQFTGPAKGEVYYSDEEDDDQEAKENAVKRAQEQEGLTRRQRRQAAKLTVAELKQLVDRPEVVDWYDCDARDPRLLVNLKSHRNTVPVPSHWNAKRDYLAGKRGIEKPPYLLPSWIAETGIGEQRDAVKAKEAEQSLRQKTRERVQPKMGKIDIDYQKLHDAFFKYQGKPSMSKFGEAYYEGKELETDLRTKKPGELSQELIEALSIPPLAPPPWLIAMQRFGPPPSYPNLRIRGLNAPIPPGAQWGFHPGGWGKPPMDDFNRPLYGDVFGVLQGAEIAHQNEVDRSLWGEIEHVEEESEEESEEEEEEEEEEEAEKPAANVPADGLETPSGLATPSGYHSVVSTVPGGLETPDFMDLRKNTKAQAEDVPSGPKELYQVIPERETTSRGLMGSSTAYDIGAVGKGSGLAVLGGEDSGRKRKAGDVDISVDTDEELTQEQLRAKYEASRAQQNRVYVPGADADRSGFEDVMSGEMKKRARKDDKRGKEKAEKFKF
[1]
  binding: binds
[2]
  binding: binds

B6: Importin N-terminal domain-containing protein (protein, UniProt J9VJ34 1-1050)
chain: MDQQVLQCLQSTLSPEENVRKHAEEQLKQLFAVPEGGLSLARLLNAQEVSLFQRQSAGVLLQQYVNQHWTPASAQFQHPITPIEVKAQIRPLVFGGLSDPERKIRLASAFSLSAIARYDWPDDYPDLLPQLVNLLTSGSSDSVHGGMRVISDFVRNELSEDQLLPVVQDLLPAVLNILANPQAHSPSTRASTVHVFRQVVRMLETVREEQPRAVKSALESLGAVWLDAFSQLLSQDAGAEVQQNWESLSIRIEIFRTLSLFQSAFPRIIAPNVPSFIRLAILNLQSLLPLFTAFYLSTNDDAPEPPSPTSDSGAGMTDPKIDITDLASAIFDYLTPTVRTKGAAGVLVEGQDESARATEVLENLVRVVQEFTQITRENAEEWMEDTNAFVIDEDEETEEYSARTSGYDLIGSVMDKWTRPVGAILQNLTNTRVQESASAKQSGSPDWWKPLESVLAMLGGISDDIRNALEEDLGKKRSPTIDVSYLFDQVIPGLLGQSEAPFLQGRAFVFASQFSSFLPQTLVTQYLNAAVSALESPEVSVPVKISAVKTIKNFCRHVDTAILQPQTGKVLSLLLPLLSQAERETLYLLLETIRAITSIDDSILSTQNTGAVVEQMFDVWLRCADDPVATSIIEENIESLTLFPDPGVLTALVHTLAPKLAAAISTPVTDETVHIPGEAVQLANSMIRMRGGPLETELVATITMAVMEILRTTDDMDVIQHGMIHLTLVVRKDCQKLLRWQDVEGNNGIASIFGLLGRFLAPTFSESGGIFVGELIMHLFRKAGEAIGPVLPDLLRAVVTRLATATMPSFTQTLVLPFAYLFSTEHTANTINLLSQFSIPVPPGGEKRALDLVLSAWCDTSDTITGSWNIRVSDMGMSKLFVLSDQRLREVIVKGDLIISEANRNTIMTRSRTRQTPNQYTQIPFPLKALKLILKDVQSEPTSAKKTTSGLDIEDDDGDEEWDDDDLLGGGFNVGEFDYLSSWLDNNGAESDAQDDDEDLKSDPLAQIDLGQYLTDVLRHAYASNSNGMHEMVEGLSDEEKGILRGVLTL
[1]
  binding: binds
[2]
  binding: binds

B7: DNA replication licensing factor MCM2 (protein, UniProt J9VT26 1-932)
chain: MPSPSVPPSSQQRPKRPRSRSRSPTAGPSGLRSSPPPSSLPPSSLPPSSPPIPFSDFGDEQDVADDEAEVRRIGRENGDDDEDEEGEDLFNDDMMADYEENAGLDTYSQADLDDRSSVAGPTRAERLAAERAMDLRDRGVSGRRAGRRDHMPAFLQSDDDEAEAFGDDPLAGINVRRRRRQYDERMDEDDVEEDDEEMSLEHLGDVKAASIAEWVSRDAVRRAISKHFKSFLMTYVDAQGNSVYGQRIKHLGEVNSESLEVSYIHLANTRPILAYFLANSPQPMLELFDQVALDAILLYYPSYDRIHSEIHVRITELPTSLSLRDLRQSNLNCLVRVSGVVTRRSGVFPQLKYVKFDCQKCGATLGPFYQDTNKELKISFCQGCESRGPFVVNSEQTVYRNYQKMTLQESPGSVPAGRLPRHREVILLWDLIDMAKPGEEVEITGIYRNNFDASLNTKNGFPVFSTVLEANHINKKEDLFAAVRLTEEDEKMIRTMARDDRIAKRIVKSIAPSIYGHDDIKTAIALSLFGGVGKDINRKHRIRGDINVLLLGDPGTAKSQFLKYVEKTANRAVFTTGQGASAVGLTASVRKDPITKEWTLEGGALVLADKGHCLIDEFDKMNDADRTSIHEAMEQQSISISKAGIITTLQARCAIIAAANPIRGRYNPTIPFQQNVELTEPILSRFDVLCVVKDAADPVQDEMLAQFVVGSHLRSHPLFDKEYEEANVSTVVDADIIPQDVLRKYIMYAKEHFRPQLHQLDQDKLARLYADLRRESLATGSFPITVRHLESMIRMAEASAKMHLREYVRTDDIDLAIQVAVGSFVNAQKMSIKKTLERGFRKYVHQATDHEELLSFLLGGIVKEKVQLYRHSHGENPTRVFVKVSQLEGRAKELEIYDVQPFLRSRLFSTNGYKVVDHDGARNIEKTFTVGA
[1]
  binding: binds
[2]
  binding: binds

B8: Short-chain dehydrogenase (protein, UniProt J9VI22 1-292)
chain: MPAARLRLEHKVAIITGAGSGIGLETALQFAAEGARLVISDINLPNVEAAAQLINAHFPECDAVAIKCDVGKEEEVKAMVDKAVEVFGRLDVLFNNAGIMHPDDDNAITTEEKIWDLTQNINVKGVWFGCKYGILAMKKNKPDPSKGLGIGGSIINVASFVAIMGAATPQLAYTASKGAVLAMTRELAMVHAREGIRFNSLCPGPIRTPLLMDFLNTPEKLNRRMVHVPMGRFGEAVEQAKAVVFLASDDSSFINGTDFLVDGGLHKCYVTPEGEPALPGPTGLLATLSKTA
[1]
  binding: binds
[2]
  binding: binds

Results are given in words; binding and its absence hold for the method and conditions named. Binding seen in cells or lysates may run through a third protein. A yes stands for co-enrichment or nearness to the bait. Other partners may have been found.
